From PubChem BioAssay AID1487 (National Center for Advancing Translational Sciences (NCATS), 2009)
The other results are listed elsewhere or left out. Further columns of the screen follow, without active or inactive calls. Compounds called inactive in the main read-out are mostly missing here. Potencies come from curve fits of mixed quality, noted in brackets.

Assay: qHTS Assay for Modulators of Lamin A Splicing
Conditions: HeLa LMNA splicing GFP/RFP minigene ratio, 48 h
Procedure, shortened: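 S3 HeLa stable clones carrying a lamin A-EGFP splicing minigene plus DsRed2 were seeded at 600 cells/well in Opti-MEM with 2% FBS, pin-dosed and incubated 48 h at 37°C. Acumen cytometry (488 nm) gave the GFP/RFP total-intensity ratio.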

[1] = measured here: RFP viability control channel
[2] = measured here: GFP splicing reporter channel

**Q.** For Nn1c(Cc2cccc3ccccc23)nnc1SCc1ccc(Cl)c(Cl)c1, which AC50 [1] is on record?
**A.** Its AC50 is 14.1 µM [rising, single point].

**Q.** Which AC50 [1] does the source give for O=C(Nc1ccc([N+](=O)[O-])cc1)Nc1nc(-c2ccc(Cl)s2)cs1 here?
**A.** Its AC50 is 3.16 µM [rising, full curve].

**Q.** For O=C(CNC(=O)C1COc2ccccc2O1)N/N=C/c1ccc(O)cc1O (centres undefined), which AC50 [2] is on record?
**A.** The AC50 was 15.8 µM [rising, single point].

**Q.** What about the AC50 [1] of the same compound?
**A.** Its AC50 is 35.5 µM [rising, single point].

**Q.** What does the source list for C/C=C/c1ccc(OCCCCN2CC(C)CC(C)C2)c(OC)c1 (centres undefined)?
**A.** AC50 [2]: 0.0224 µM [falling, full curve, poor fit]; AC50 [1]: 0.0282 µM [falling, full curve, poor fit]

**Q.** Which AC50 [2] does the source give for OC(COc1ccc2c(c1)CCC2)Cn1cnc2ccccc21 (centres undefined) here?
**A.** Its AC50 is 11.2 µM [rising, partial curve, poor fit].

**Q.** What about the AC50 [1] of the same compound?
**A.** Its AC50 is 12.6 µM [rising, partial curve].

**Q.** For O=C(Cc1ccc(Br)cc1)c1ccc(O)cc1O, which AC50 [1] is on record?
**A.** Its AC50 is 20 µM [rising, single point].

**Q.** With O=C(CCCn1c(=S)[nH]c2cc3c(cc2c1=O)OCO3)N1CCN(c2ccc(F)cc2)CC1 as the compound, how does the AC50 [2] read?
**A.** The AC50 was 15.8 µM [rising, partial curve, poor fit].

**Q.** What does the source list for COc1ccc(OCCNC(=O)c2cccc(Oc3ccc(C(F)(F)F)cc3[N+](=O)[O-])c2)cc1?
**A.** AC50 [2]: 7.08 µM [rising, partial curve, poor fit]; AC50 [1]: 6.31 µM [rising, full curve]

**Q.** For CC(Oc1ccc(Cl)cc1Cl)C(=O)Nc1ccncc1 (centres undefined), which AC50 [1] is on record?
**A.** Its AC50 is 5.01 µM [rising, partial curve].

**Q.** For O=C(Nc1ccc(Cl)c(Cl)c1)OCc1cnc(Cl)s1, which AC50 [1] is on record?
**A.** Its AC50 is 0.794 µM [rising, partial curve].

**Q.** Which AC50 [2] does the source give for CCOC1=NN(c2ccc(Cl)cc2)C(=O)/C1=C\N(C)C here?
**A.** Its AC50 is 28.2 µM [falling, single point].

**Q.** Which AC50 [2] does the source give for O=C1Nc2ccccc2C12Nc1ccccc1S2 (centres undefined) here?
**A.** The AC50 was 35.5 µM [falling, single point].

**Q.** What about the AC50 [1] of the same compound?
**A.** Its AC50 is 35.5 µM [falling, single point].

**Q.** Which AC50 [2] does the source give for CC(C(=O)Nc1sc2c(c1C(=O)NCC1CCCO1)CCC2)N1C(=O)c2ccccc2C1=O (centres undefined) here?
**A.** Its AC50 is 0.1 µM [falling, full curve, poor fit].

**Q.** With CCOc1ccc(S(=O)(=O)Nc2cccc(C)c2)c2cccnc12 as the compound, how does the AC50 [2] read?
**A.** The AC50 was 5.01 µM [rising, partial curve].

**Q.** What about the AC50 [1] of the same compound?
**A.** Its AC50 is 6.31 µM [rising, single point].

**Q.** With COc1cc(NC(=O)NCCN2CCN(c3ccc(Cl)cc3)CC2)ccc1C as the compound, how does the AC50 [1] read?
**A.** The AC50 was 31.6 µM [rising, single point].

**Q.** With COc1ccc(S(=O)(=O)NCCS(=O)(=O)N2CCN(c3ccccc3F)CC2)cc1 as the compound, how does the AC50 [2] read?
**A.** The AC50 was 0.0112 µM [falling, full curve].

**Q.** Which results are given for CCN(CC)CCCNC(=S)N(Cc1cccs1)Cc1cc2cc3c(cc2[nH]c1=O)OCCO3?
**A.** AC50 [2]: 35.5 µM [falling, single point]; AC50 [1]: 35.5 µM [falling, single point]

**Q.** For C/C(=N\N1C(=O)c2ccccc2NC1c1ccco1)c1ccccc1O (centres undefined), which AC50 [1] is on record?
**A.** Its AC50 is 11.2 µM [rising, partial curve].

**Q.** With Cc1cc(C)cc(NC(=O)CN(C)S(=O)(=O)c2cccc3nsnc23)c1 as the compound, how does the AC50 [1] read?
**A.** The AC50 was 20 µM [rising, single point].

**Q.** With O=C(c1cccc(NS(=O)(=O)c2ccc(F)c(F)c2)c1)N1CCN(Cc2ccccc2)CC1 as the compound, how does the AC50 [1] read?
**A.** Its AC50 is 10 µM [rising, single point].

**Q.** With C=CCn1c(=O)c(C(=O)Nc2cccnc2)c(O)c2ccccc21 as the compound, how does the AC50 [1] read?
**A.** Its AC50 is 35.5 µM [rising, single point].

**Q.** What does the source list for O=C(N/N=C/c1cc(Br)ccc1O)c1cccc(N2CCCC2=O)c1?
**A.** AC50 [2]: 11.2 µM [rising, partial curve]; AC50 [1]: 20 µM [rising, partial curve]

**Q.** Which AC50 [1] does the source give for Cc1ccc(C)n1-c1ccc(C(=O)NCC2CCCO2)cc1 (centres undefined) here?
**A.** The AC50 was 7.08 µM [falling, partial curve].

**Q.** Which AC50 [2] does the source give for CCOc1ccccc1C(=O)NCC(c1ccc(N(C)C)cc1)N1CCc2ccccc21 (centres undefined) here?
**A.** Its AC50 is 12.6 µM [falling, partial curve, poor fit].

**Q.** What does the source list for COc1ccc(NC(=O)CSc2ccc3ccccc3c2)cc1S(=O)(=O)N1CCCCC1?
**A.** AC50 [2]: 12.6 µM [rising, single point]; AC50 [1]: 17.8 µM [rising, single point]

**Q.** What does the source list for Cc1c(C(=O)NCc2ccc(F)cc2)sc2nc(-c3ccccc3)cn12?
**A.** AC50 [2]: 3.98 µM [rising, partial curve]; AC50 [1]: 5.01 µM [rising, partial curve]

**Q.** With COC(=O)c1c(-c2ccc(Cl)cc2)noc1N1CCN(c2cccc(OC)c2)CC1 as the compound, how does the AC50 [2] read?
**A.** The AC50 was 3.55 µM [falling, full curve].

**Q.** And the AC50 [1]?
**A.** The AC50 was 5.01 µM [falling, full curve].

**Q.** Which results are given for CCOc1ccc(CN(C)C(C)C(=O)Nc2ccc([N+](=O)[O-])cc2Cl)cc1OC (centres undefined)?
**A.** AC50 [2]: 12.6 µM [rising, single point]; AC50 [1]: 15.8 µM [rising, partial curve]

**Q.** For CCc1ccc(CN(C)C(=O)c2cc(COc3c(F)cccc3F)on2)cc1, which AC50 [2] is on record?
**A.** The AC50 was 7.94 µM [falling, partial curve, poor fit].

**Q.** And the AC50 [1]?
**A.** Its AC50 is 7.08 µM [falling, partial curve, poor fit].

**Q.** Which AC50 [1] does the source give for COc1cc2c(cc1NC(=O)CSc1ccccc1)oc1ccccc12 here?
**A.** The AC50 was 22.4 µM [rising, partial curve].

**Q.** Which AC50 [1] does the source give for Cc1ccc(CSc2nnc(-c3cccc(S(=O)(=O)N4CCOCC4)c3)n2C2CCCC2)cc1 here?
**A.** The AC50 was 28.2 µM [rising, single point].

**Q.** Which AC50 [2] does the source give for COCCCCC(=NOCCN)c1ccc(C(F)(F)F)cc1 here?
**A.** The AC50 was 0.0708 µM [falling, full curve].

**Q.** And the AC50 [1]?
**A.** Its AC50 is 0.0447 µM [falling, full curve].

**Q.** With Cc1ccc(Cl)cc1N1CCN(C(=O)COc2ccc3c(c2)CCC3)CC1 as the compound, how does the AC50 [1] read?
**A.** The AC50 was 35.5 µM [rising, single point].

**Q.** For CCNc1ncc2nc(-c3ccc(Cl)cc3)c(=O)n(Cc3cccc(OC)c3)c2n1, which AC50 [2] is on record?
**A.** The AC50 was 20 µM [falling, single point].

**Q.** What about the AC50 [1] of the same compound?
**A.** The AC50 was 22.4 µM [falling, single point].

**Q.** With Cc1ccc(NC(=O)c2cc(-c3cccs3)on2)cc1C as the compound, how does the AC50 [2] read?
**A.** The AC50 was 3.16 µM [falling, full curve].

**Q.** And the AC50 [1]?
**A.** The AC50 was 8.91 µM [falling, full curve].

**Q.** With CC(C)(C)c1nnc2sc(SCC(=O)c3ccc4c(c3)OCCO4)nn2c1=O as the compound, how does the AC50 [2] read?
**A.** The AC50 was 22.4 µM [falling, single point].

**Q.** Which AC50 [2] does the source give for Nc1nc(CSc2nnnn2-c2ccccc2)nc(N2CCCc3ccccc32)n1 here?
**A.** Its AC50 is 15.8 µM [rising, single point].

**Q.** And the AC50 [1]?
**A.** The AC50 was 20 µM [rising, single point].

**Q.** Which results are given for CCN1C(=O)C2(C(C(=O)c3cc4ccccc4o3)=C(O)C(=O)N2CCCN(C)C)c2ccccc21 (centres undefined)?
**A.** AC50 [2]: 0.794 µM [rising, partial curve, poor fit]; AC50 [1]: 0.126 µM [rising, full curve]

**Q.** For Cc1oc(-c2ccccc2)nc1CNS(=O)(=O)c1ccc(Cl)cc1, which AC50 [1] is on record?
**A.** The AC50 was 15.8 µM [rising, partial curve].

**Q.** With CCOC(=O)c1ccccc1NC(=O)Cn1cnc2c1c(=O)n(C)c(=O)n2C as the compound, how does the AC50 [2] read?
**A.** The AC50 was 11.2 µM [rising, partial curve, poor fit].

**Q.** Which AC50 [2] does the source give for O=C(Nc1nnc(S(=O)(=O)N2CCCC2)s1)c1ccc(F)cc1 here?
**A.** The AC50 was 35.5 µM [falling, partial curve, poor fit].

**Q.** Which results are given for CN1c2ccc(Cl)cc2C(=O)NC1C1CC=CCC1 (centres undefined)?
**A.** AC50 [2]: 0.251 µM [rising, full curve, poor fit]; AC50 [1]: 0.158 µM [rising, full curve, poor fit]

**Q.** Which AC50 [2] does the source give for O=[N+]([O-])c1cc(/C=N/O)ccc1N1CCCC1 here?
**A.** The AC50 was 11.2 µM [rising, partial curve, poor fit].

**Q.** With COCCNc1nnnc2c1sc1nc(N3CCOCC3)c3c(c12)CCCC3 as the compound, how does the AC50 [1] read?
**A.** Its AC50 is 3.16 µM [falling, single point].

**Q.** Which AC50 [2] does the source give for Cc1cccc(CSC(Nc2ccc(F)cc2)=C(C#N)C#N)c1 here?
**A.** Its AC50 is 12.6 µM [rising, partial curve, poor fit].

**Q.** And the AC50 [1]?
**A.** The AC50 was 11.2 µM [rising, partial curve].

**Q.** With COC(=O)C1=C(C)NC(=O)/C1=C\c1cc(C)n(-c2cccc(C)c2)c1C as the compound, how does the AC50 [1] read?
**A.** The AC50 was 10 µM [rising, single point].

**Q.** With O=C1c2c(O)cccc2Cc2cccc(O)c21 as the compound, how does the AC50 [2] read?
**A.** Its AC50 is 0.631 µM [falling, single point].

**Q.** What does the source list for COc1ccc2[nH]c(=O)c3c(c2c1)OC(C)(C)C=C3?
**A.** AC50 [2]: 25.1 µM [rising, single point]; AC50 [1]: 35.5 µM [rising, single point]

**Q.** Which AC50 [2] does the source give for CN(C)c1ccc(C(=O)Nc2nc3c(s2)CCCC3)cc1 here?
**A.** The AC50 was 11.2 µM [rising, partial curve, poor fit].

**Q.** And the AC50 [1]?
**A.** The AC50 was 11.2 µM [rising, partial curve, poor fit].

**Q.** For CC1CCCN(C(=O)N2c3ccccc3Sc3ccccc32)C1 (centres undefined), which AC50 [1] is on record?
**A.** Its AC50 is 15.8 µM [rising, single point].

**Q.** Which AC50 [2] does the source give for Nc1[nH]c(N=NC(=O)c2ccccc2O)c2ccccc12 here?
**A.** The AC50 was 5.01 µM [falling, partial curve, poor fit].

**Q.** And the AC50 [1]?
**A.** The AC50 was 10 µM [falling, partial curve].

**Q.** With O=C(CCn1cccn1)Nc1cccc(C(F)(F)F)c1 as the compound, how does the AC50 [2] read?
**A.** Its AC50 is 0.0501 µM [falling, full curve, poor fit].

**Q.** What about the AC50 [1] of the same compound?
**A.** Its AC50 is 0.1 µM [falling, full curve].

**Q.** Which AC50 [2] does the source give for O=C(NC(=S)Nc1ccc(N2CCN(C(=O)c3ccccc3)CC2)cc1)c1cccs1 here?
**A.** The AC50 was 3.98 µM [falling, full curve].

**Q.** What about the AC50 [1] of the same compound?
**A.** The AC50 was 4.47 µM [falling, full curve, poor fit].

**Q.** With O=C(CC(=O)Nc1ccc(Cl)c(Cl)c1)N/N=C/c1ccc(O)cc1 as the compound, how does the AC50 [1] read?
**A.** The AC50 was 14.1 µM [rising, single point].
